Data reported in PubChem BioAssay AID602313 (National Center for Advancing Translational Sciences (NCATS), 2012).
Hit rate of the full screen: of about 390,000 compounds, about 760 (0.19%) were called active. Inconclusive results, whose numbers are uncertain, are shown with a selection of clear calls. Calls follow the shape of the dose curve; as a rule, active = well fitted inhibition curve with a large enough effect; inconclusive = small, poorly fitted or top-dose-only effect; inactive = flat fitted curve, though single readings scatter. Potencies beside an inconclusive call are fits to weak or partial responses and may not hold up.

assay: qHTS for Inhibitors of Vif-A3F Interactions: qHTS; details: HeLa A3F-eYFP + Vif (tagged APOBEC3F with the HIV-1 protein that degrades it), YFP fluorescence increase; series mostly up to 46.1 µM; also: nearly all actives have a fitted effect of over 65% in size
Method in brief: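 Fluorescence increase (Ex 488/Em 500-530) after overnight compound treatment at 37 deg C flags inhibition of Vif-driven A3F-eYFP loss in stable HeLa A3F-eYFP/Vif cells seeded overnight beforehand.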
Potency is read from the fitted curve at half-maximal effect.

SMILES	Potency
Cc1cccc(Cn2cnc3c(cnn3-c3ccc(Cl)cc3)c2=O)c1	inactive
Cc1ccnc(NS(=O)(=O)c2ccc(NC(=O)c3cc(-c4ccc(Br)cc4)nc4ccccc34)cc2)n1	inconclusive: 22.4 µM [inhibitor, single point]
CCOc1ncccc1C(=O)Nc1ccc2nc(C)sc2c1	inconclusive: 35.5 µM [inhibitor, partial curve, poor fit]
COc1cc(OC)c(NC(=O)Nc2c(C)n(C)n(-c3ccccc3)c2=O)cc1Cl	inactive
COc1cc(C2NCC(c3ccc(Cl)cc3Cl)c3c2[nH]c2ccccc32)cc(OC)c1OC (stereo unspecified)	inactive
COc1ccccc1N1CCN(C(=O)CN2C(=O)COc3ccc(S(=O)(=O)N4CCCC4)cc32)CC1	inactive
Cc1nnc(Nc2ccc(S(N)(=O)=O)cc2)c2ccccc12	inconclusive: 2.82 µM [inhibitor, partial curve, poor fit]
O=C(CSc1cccc[n+]1[O-])c1ccc(Cl)cc1	inconclusive: 2.82 µM [inhibitor, full curve, poor fit]
CC1CCCCN1Cc1nc2ccccc2c(=O)[nH]1 (stereo unspecified)	inconclusive: 3.98 µM [inhibitor, single point]
Oc1c(C=Nc2ccccc2)sc(=S)n1Cc1ccccc1	inconclusive: 20 µM [inhibitor, single point]
CC1=CC(C)(C(Cl)Cl)C(C)=CC1=O (stereo unspecified)	inconclusive: 6.31 µM [inhibitor, single point]
CN(C)c1ccc(C(C#N)c2ccc(Cl)cc2)nn1 (stereo unspecified)	inconclusive: 15.8 µM [inhibitor, single point]
O=S(=O)(c1ccc(-c2ccon2)s1)N1CCN(c2ccccn2)CC1	inconclusive: 25.1 µM [inhibitor, single point]
CC(C)c1ccc(NC(=O)c2ccc(Cn3nc(N4CCN(c5ccccc5)CC4)ccc3=O)o2)cc1	inactive
S=C1NC2=C(CCCC2=C2SCCS2)C(c2ccccc2)N1 (stereo unspecified)	inconclusive: 35.5 µM [inhibitor, single point]
COc1ccc(/C=N/Nc2nc(-c3cccnc3)nc3ccccc23)c(OC)c1	inconclusive: 31.6 µM [inhibitor, single point]
Cc1cccn2c(=O)c3cc(C(=O)NC4CCCC4)c(=N)n(CCc4ccccc4)c3nc12	inconclusive: 15.8 µM [inhibitor, single point]
CCn1c(SCC(=O)N/N=C/C=C\c2ccco2)nc2ccccc21	inactive
CC(C)(C)NC(=S)N/N=C/c1c(Cl)cccc1Cl	inconclusive: 4.47 µM [inhibitor, single point]
Cc1c(S(=O)(=O)N2CCN(c3ccccc3)CC2)c(=O)n(C)c(=O)n1C	inconclusive: 3.16 µM [inhibitor, single point]
Cn1c(-c2c(N)n(C3CCCC3)c3nc4ccccc4nc23)nc2ccccc21	inconclusive: 15.8 µM [inhibitor, single point]
Cc1ccc(Nc2cc(C)c3c(O)cccc3n2)cc1C	inactive

4 neighbouring records out of the list so far, quoted:
SMILES	Potency
Cc1ccnc(NS(=O)(=O)c2ccc(NC(=O)c3cc(-c4ccc(Br)cc4)nc4ccccc34)cc2)n1	inconclusive: 22.4 µM [inhibitor, single point]
CCOc1ncccc1C(=O)Nc1ccc2nc(C)sc2c1	inconclusive: 35.5 µM [inhibitor, partial curve, poor fit]
COc1cc(OC)c(NC(=O)Nc2c(C)n(C)n(-c3ccccc3)c2=O)cc1Cl	inactive
COc1cc(C2NCC(c3ccc(Cl)cc3Cl)c3c2[nH]c2ccccc32)cc(OC)c1OC (stereo unspecified)	inactive

Looked up above.
Potency with `CC1CCCCN1Cc1nc2ccccc2c(=O)[nH]1` (stereo unspecified) reads inconclusive: 3.98 µM [inhibitor, single point]
Potency with `Oc1c(C=Nc2ccccc2)sc(=S)n1Cc1ccccc1` reads inconclusive: 20 µM [inhibitor, single point]

Next part.

SMILES	Potency
O=C(CN1CCN(c2ccccc2)CC1)Nc1c(C(=O)C2CC2)oc2ccccc12	inactive
CCc1ccc(C2=NN(CCC(=O)NC(C)CCc3ccccc3)C(=O)CC2)cc1 (stereo unspecified)	inactive
COc1ccc(-c2cc(OC(=O)c3ccccc3)c3c(C)oc(C)c3c(=O)c2)cc1OC	inconclusive: 35.5 µM [inhibitor, single point]
NC(=O)c1ccc(NC(=O)COC(=O)c2ccc(Cl)nc2)cc1	inactive
CCOc1cc(NC(=S)NCCCN2CCOCC2)c(OCC)cc1NC(=O)c1ccccc1	inconclusive: 8.91 µM [inhibitor, partial curve, poor fit]
COCCN1CCN(C(=O)c2cc(COc3ccc(F)cc3Cl)on2)CC1	inconclusive: 35.5 µM [inhibitor, single point]
CCc1cccc(NC(=O)C2CCC(CNS(=O)(=O)c3ccc4c(c3)CCCC(=O)N4)CC2)c1 (stereo unspecified)	inactive
COc1cccc2c1C(=N)c1c(O)c3c(c(O)c1C2=O)CC(O)(C(C)=O)CC3OC1CC(N)C(O)C(C)O1 (stereo unspecified)	inconclusive: 3.16 µM [inhibitor, partial curve, poor fit]
O=[N+]([O-])/C=C\c1ccc(N2CCCC2)c(F)c1	active: 25.1 µM
CC(=O)Nc1ccc(NC(=O)C(C)OC(=O)c2c(NC(C)=O)sc(C)c2C)cc1 (stereo unspecified)	inconclusive: 35.5 µM [inhibitor, single point]
COc1ccccc1CN1CCN(C(=O)c2ccco2)CC1	inactive
COc1ccc(S(=O)(=O)N2CCCCC2)cc1NC(=S)Nc1cccc(Cl)c1C	inactive
C=CC[C@@H](CC(=O)N[C@@H](CO)Cc1ccccc1)C(=O)N[C@H](COC(=O)[C@@H](CC=C)CC(=O)OC(C)(C)C)Cc1ccccc1	inconclusive: 22.4 µM [inhibitor, single point]
CCN(CCCNC(=O)c1cc2cc3ccc(OC)cc3nc2s1)c1cccc(C)c1	inconclusive: 35.5 µM [inhibitor, single point]
COc1cc2c(cc1OC)/C(=C/C(=O)N1CCOCC1)NC(C)(C)C2	inactive
Cc1ccc(S(=O)(=O)Nc2cccc3cccnc23)cc1	inconclusive: 6.31 µM [inhibitor, single point]
O=C(COc1ccccc1-c1ccccc1)NCCN1C(=O)S/C(=C\c2cccnc2)C1=O	inactive
Cc1nc(SCc2ccc(F)cc2)c2oc3ccccc3c2n1	inconclusive: 2.51 µM [inhibitor, full curve, poor fit]
CNC(=S)N/N=C/c1c(C)cccc1Cl	inconclusive: 10 µM [inhibitor, single point]
Cc1occc1C(=O)Nc1ccc([N+](=O)[O-])cc1Br	inconclusive: 35.5 µM [inhibitor, single point]
C=CC[C@@H](CC(=O)N(CCO)Cc1ccccc1)C(=O)NC[C@@H](OC(=O)[C@@H](CC=C)Cc1ccc(F)cc1)c1ccccc1	inactive
CN(C)C(CNC(=O)C1CCN(S(=O)(=O)c2ccc(Cl)cc2)CC1)c1ccccc1 (stereo unspecified)	inconclusive: 20 µM [inhibitor, partial curve, poor fit]

SMILES	Potency
CC(C)=CCc1c(O)cc2oc3c(CC=C(C)C)c(O)c(O)c(CC=C(C)C)c3c(=O)c2c1O	inconclusive: 35.5 µM [inhibitor, single point]
CC(C)(C)c1ccccc1NC(=S)NC1CCCCC1	inconclusive: 25.1 µM [inhibitor, single point]
Cc1cc(NC(=O)Nc2ccc(Cl)c(Cl)c2)no1	inactive
CN1CCN(/N=C/c2ccc(-c3ccc([N+](=O)[O-])cc3Cl)o2)CC1	inconclusive: 12.6 µM [inhibitor, partial curve, poor fit]
NNC(=O)c1cc2cc3ccccc3nc2s1	inconclusive: 20 µM [inhibitor, single point]
CCOC(=O)CC1CCCCN1Cc1cn[nH]c1-c1ccc(F)cc1F (stereo unspecified)	inconclusive: 5.62 µM [inhibitor, single point]
O=C(NCCCN1CCOCC1)c1ccc(CSc2ccc(Cl)cc2)cc1	inconclusive: 10 µM [inhibitor, partial curve, poor fit]
Cc1ccc(S(=O)(=O)NC(CC(C)C)C(=O)NCC(c2ccco2)N2CCCCC2)cc1 (stereo unspecified)	inconclusive: 20 µM [inhibitor, partial curve, poor fit]
CC(C)c1ccc(N(CC(=O)NC2CCCC2)C(=O)CCC(=O)Nc2ccccn2)cc1	inactive
O=C(CNC(=S)NC(=O)c1cccs1)c1ccccc1	inconclusive: 17.8 µM [inhibitor, single point]
CC(=O)OCC(=O)C12OC(C)(C)OC1CC1C3CC=C4CC(O)CCC4(C)C3CCC12C (stereo unspecified)	inconclusive: 5.62 µM [inhibitor, single point]
O=C(Nc1nnc(Cc2ccccc2)s1)C1CCN(C(=O)c2ccco2)CC1	inactive
Cn1cc(C2=C(c3ccc(Cl)cc3Cl)C(=O)NC2=O)c2ccccc21	inconclusive: 3.16 µM [inhibitor, full curve, poor fit]
COc1ccc(C(=O)OCC(=O)Nc2nnc(-c3ccccc3)o2)cc1	inconclusive: 28.2 µM [inhibitor, single point]
CCOc1ccc(OCc2cccc(C(=O)Nc3ccc(CN4CCCCC4)cc3)c2)cc1	inconclusive: 11.2 µM [inhibitor, single point]
O=C(COC(=O)CC1CCCC1)Nc1ccc(OC(F)F)cc1	inconclusive: 6.31 µM [inhibitor, partial curve, poor fit]
CCOc1ccc(N(C)c2ccc(/C=C3/SC(=S)NC3=O)cc2)cc1	inconclusive: 22.4 µM [inhibitor, partial curve, poor fit]
Cc1ccc2nsnc2c1S(=O)(=O)N1CCN(CCc2ccccc2)CC1	inconclusive: 3.55 µM [inhibitor, single point]
CCN(CC)S(=O)(=O)c1ccc(N2CCCC2)c(NC(=O)c2ccc([N+](=O)[O-])o2)c1	inconclusive: 6.31 µM [inhibitor, single point]
COc1ccc(CN2CCN(Cc3ccccc3C(F)(F)F)CC2)c(OC)c1	inconclusive: 35.5 µM [inhibitor, single point]
O=C(O)C(Cc1ccc(Cl)cc1)Sc1nc2ccccc2[nH]1 (stereo unspecified)	inconclusive: 2.24 µM [inhibitor, partial curve, poor fit]
Cc1cc(NC(=O)NCc2ccccc2)c(=O)n(Cc2ccc(F)cc2)c1	inconclusive: 35.5 µM [inhibitor, single point]
